{"source": "patent US20130096104A1", "about": "“IMIDAZOPYRIDINE COMPOUNDS, COMPOSITIONS AND METHODS OF USE” (GENENTECH, INC., priority 2010, published 2013)", "biological_target": "T1, TYK2 kinase domain (Homo sapiens, UniProt P29597)", "T1 construct": "The activity of the isolated JAK1, JAK2 or TYK2 kinase domain was measured", "T1 sequence (P29597 897-1176 limits assumed)": "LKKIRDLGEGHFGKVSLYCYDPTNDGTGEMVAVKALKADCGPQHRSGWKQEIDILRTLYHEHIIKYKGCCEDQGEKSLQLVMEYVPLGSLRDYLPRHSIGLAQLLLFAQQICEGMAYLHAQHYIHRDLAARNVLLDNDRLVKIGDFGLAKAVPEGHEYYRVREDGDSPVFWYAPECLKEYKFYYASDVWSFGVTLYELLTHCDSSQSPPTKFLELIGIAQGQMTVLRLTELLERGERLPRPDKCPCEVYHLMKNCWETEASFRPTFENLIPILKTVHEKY", "test": "TYK2 inhibition assay (Example A, Caliper LabChip peptide phosphorylation)", "assay_type": "biochemical", "conditions": "tested in the above assays; less than about", "note": "Some of these results come from one statement about several compounds together.", "data": [{"smiles": "Cc1cc(Nc2nccc3nc(-c4c(Cl)cccc4Cl)[nH]c23)n(C)n1", "note": "[Example 369, 2-(2,6-dichlorophenyl)-N-(1,3-dimethyl-1H-pyrazol-5-yl)-3H-imidazo[4,5-c]pyridin-4-amine]", "values": [{"measurement": "IC50", "value": "< 5", "unit": "µM"}]}, {"smiles": "Cn1ccc(Nc2nccc3nc(-c4c(Cl)cccc4Cl)[nH]c23)n1", "note": "[Example 370, 2-(2,6-dichlorophenyl)-N-(1-methyl-1H-pyrazol-3-yl)-3H-imidazo[4,5-c]pyridin-4-amine]", "values": [{"measurement": "IC50", "value": "< 5", "unit": "µM"}]}, {"smiles": "Clc1cccc(Cl)c1-c1nc2ccnc(Nc3cc(N4CC5(COC5)C4)ncn3)c2[nH]1", "note": "[Example 371, N-(6-(2-oxa-6-azaspiro[3.3]-heptan-6-yl)pyrimidin-4-yl)-2-(2,6-dichlorophenyl)-3H-imidazo[4,5-c]pyridin-4-amine]", "values": [{"measurement": "IC50", "value": "< 5", "unit": "µM"}]}, {"smiles": "CN(C)c1cc(Nc2ncnc3nc(-c4c(Cl)cccc4Cl)[nH]c23)ncn1", "note": "[Example 372, N4-(8-(2,6-dichlorophenyl)-7H-purin-6-yl)-N6,N6-dimethylpyrimidine-4,6-diamine]", "values": [{"measurement": "IC50", "value": "< 5", "unit": "µM"}]}, {"smiles": "Clc1cccc(Cl)c1-c1nc2ncnc(Nc3cc(N4CCN(C5COC5)CC4)ncn3)c2[nH]1", "note": "[Example 373, 8-(2,6-dichlorophenyl)-N-(6-(4-(oxetan-3-yl)piperazin-1-yl)pyrimidin-4-yl)-7H-purin-6-amine]", "values": [{"measurement": "IC50", "value": "< 5", "unit": "µM"}]}, {"smiles": "Clc1cccc(Cl)c1-c1nc2ncnc(Nc3cc(N4CCC4)ncn3)c2[nH]1", "note": "[Example 374, N-(6-(azetidin-1-yl)pyrimidin-4-yl)-8-(2,6-dichlorophenyl)-7H-purin-6-amine]", "values": [{"measurement": "IC50", "value": "< 5", "unit": "µM"}]}, {"smiles": "COC(=O)c1ccnc(Nc2ncnc3nc(-c4c(Cl)cccc4Cl)[nH]c23)c1", "note": "[Example 375, methyl 2-(8-(2,6-dichlorophenyl)-7H-purin-6-ylamino)isonicotinate]", "values": [{"measurement": "IC50", "value": "< 5", "unit": "µM"}]}, {"smiles": "CC(C)(O)c1ccnc(Nc2ncnc3nc(-c4c(Cl)cccc4Cl)[nH]c23)c1", "note": "[Example 376, 2-(2-(8-(2,6-dichlorophenyl)-7H-purin-6-ylamino)pyridin-4-yl)propan-2-ol]", "values": [{"measurement": "IC50", "value": "< 5", "unit": "µM"}]}, {"smiles": "COC(=O)c1cc(Nc2ncnc3nc(-c4c(Cl)cccc4Cl)[nH]c23)ccn1", "note": "[Example 377, methyl 4-(8-(2,6-dichlorophenyl)-7H-purin-6-ylamino)picolinate]", "values": [{"measurement": "IC50", "value": "< 5", "unit": "µM"}]}, {"smiles": "O=C(O)c1ccnc(Nc2ncnc3nc(-c4c(Cl)cccc4Cl)[nH]c23)c1", "note": "[Example 378, 2-(8-(2,6-dichlorophenyl)-7H-purin-6-ylamino)isonicotinic acid]", "values": [{"measurement": "IC50", "value": "< 5", "unit": "µM"}]}, {"smiles": "OCc1cncc(Nc2ncnc3nc(-c4c(Cl)cccc4Cl)[nH]c23)c1", "note": "[Example 379, (5-(8-(2,6-dichlorophenyl)-7H-purin-6-ylamino)pyridin-3-yl)methanol]", "values": [{"measurement": "IC50", "value": "< 5", "unit": "µM"}]}, {"smiles": "Oc1cc(Nc2ncnc3nc(-c4c(Cl)cccc4Cl)[nH]c23)ncn1", "note": "[Example 380, 6-(8-(2,6-dichlorophenyl)-7H-purin-6-ylamino)pyrimidin-4-ol]", "values": [{"measurement": "IC50", "value": "< 5", "unit": "µM"}]}, {"smiles": "Nc1ncnc(Nc2ncnc3nc(-c4c(Cl)cccc4Cl)[nH]c23)n1", "note": "[Example 381, (8-(2,6-dichlorophenyl)-7H-purin-6-yl)-1,3,5-triazine-2,4-diamine]", "values": [{"measurement": "IC50", "value": "< 5", "unit": "µM"}]}, {"smiles": "Nc1cccc(Nc2ncnc3nc(-c4c(Cl)cccc4Cl)[nH]c23)n1", "note": "[Example 382, N2-(8-(2,6-dichlorophenyl)-7H-purin-6-yl)pyridine-2,6-diamine]", "values": [{"measurement": "IC50", "value": "< 5", "unit": "µM"}]}, {"smiles": "O=C(O)c1cc(Nc2ncnc3nc(-c4c(Cl)cccc4Cl)[nH]c23)ccn1", "note": "[Example 383, 4-(8-(2,6-dichlorophenyl)-7H-purin-6-ylamino)picolinic acid]", "values": [{"measurement": "IC50", "value": "< 5", "unit": "µM"}]}, {"smiles": "Cc1cc(Nc2ncnc3nc(-c4c(Cl)cccc4Cl)[nH]c23)n[nH]1", "note": "[Example 384, 8-(2,6-dichlorophenyl)-N-(5-methyl-1H-pyrazol-3-yl)-7H-purin-6-amine]", "values": [{"measurement": "IC50", "value": "< 5", "unit": "µM"}]}, {"smiles": "Nc1cc(Nc2ncnc3nc(-c4c(Cl)cccc4Cl)[nH]c23)ccn1", "note": "[Example 385, N4-(8-(2,6-dichlorophenyl)-7H-purin-6-yl)pyridine-2,4-diamine]", "values": [{"measurement": "IC50", "value": "< 5", "unit": "µM"}]}, {"smiles": "OCc1ccnc(Nc2ncnc3nc(-c4c(Cl)cccc4Cl)[nH]c23)c1", "note": "[Example 386, (2-(8-(2,6-dichlorophenyl)-7H-purin-6-ylamino)pyridin-4-yl)methanol]", "values": [{"measurement": "IC50", "value": "< 5", "unit": "µM"}]}, {"smiles": "Cc1cc(Nc2ncnc3nc(-c4c(Cl)cccc4Cl)[nH]c23)n(C)n1", "note": "[Example 387, 8-(2,6-dichlorophenyl)-N-(1,3-dimethyl-1H-pyrazol-5-yl)-7H-purin-6-amine]", "values": [{"measurement": "IC50", "value": "< 5", "unit": "µM"}]}, {"smiles": "Cn1ccc(Nc2ncnc3nc(-c4c(Cl)cccc4Cl)[nH]c23)n1", "note": "[Example 388, 8-(2,6-dichlorophenyl)-N-(1-methyl-1H-pyrazol-3-yl)-7H-purin-6-amine]", "values": [{"measurement": "IC50", "value": "< 5", "unit": "µM"}]}, {"smiles": "Nc1cc(Nc2ncnc3nc(-c4c(Cl)cccc4Cl)[nH]c23)nc(N2CCOCC2)n1", "note": "[Example 389, N4-(8-(2,6-dichlorophenyl)-7H-purin-6-yl)-2-morpholino-pyrimidine-4,6-diamine]", "values": [{"measurement": "IC50", "value": "< 5", "unit": "µM"}]}, {"smiles": "CC(=O)c1cc(Nc2ncnc3nc(-c4c(Cl)cccc4Cl)[nH]c23)ccn1", "note": "[Example 390, 1-(4-(8-(2,6-dichlorophenyl)-7H-purin-6-ylamino)pyridin-2-yl)ethanone]", "values": [{"measurement": "IC50", "value": "< 5", "unit": "µM"}]}, {"smiles": "CC(C)(O)c1cc(Nc2ncnc3nc(-c4c(Cl)cccc4Cl)[nH]c23)ccn1", "note": "[Example 391, 2-(4-(8-(2,6-dichlorophenyl)-7H-purin-6-ylamino)pyridin-2-yl)propan-2-ol]", "values": [{"measurement": "IC50", "value": "< 5", "unit": "µM"}]}, {"smiles": "COC(=O)c1cncc(Nc2ncnc3nc(-c4c(Cl)cccc4Cl)[nH]c23)c1", "note": "[Example 392, methyl 5-(8-(2,6-dichlorophenyl)-7H-purin-6-ylamino)-nicotinate]", "values": [{"measurement": "IC50", "value": "< 5", "unit": "µM"}]}, {"smiles": "Clc1cc(Nc2ncnc3nc(-c4c(Cl)cccc4Cl)[nH]c23)ncn1", "note": "[Example 393, N-(6-chloropyrimidin-4-yl)-8-(2,6-dichlorophenyl)-7H-purin-6-amine]", "values": [{"measurement": "IC50", "value": "< 5", "unit": "µM"}]}, {"smiles": "CC(C)(O)c1cccc(Nc2ncnc3nc(-c4c(Cl)cccc4Cl)[nH]c23)n1", "note": "[Example 395, 2-(6-(8-(2,6-dichlorophenyl)-7H-purin-6-ylamino)pyridin-2-yl)propan-2-ol]", "values": [{"measurement": "IC50", "value": "< 5", "unit": "µM"}]}, {"smiles": "Nc1ncnc2c1nc(-c1c(Cl)cccc1Cl)n2CCO", "note": "[Example 396, 2-(6-amino-8-(2,6-dichlorophenyl)-9H-purin-9-yl)ethanol]", "values": [{"measurement": "IC50", "value": "< 5", "unit": "µM"}]}, {"smiles": "OCCn1c(-c2c(Cl)cccc2Cl)nc2c(Nc3cc(CO)ccn3)ncnc21", "note": "[Example 397, 2-(8-(2,6-dichlorophenyl)-6-(4-(hydroxymethyl)-pyridin-2-ylamino)-9H-purin-9-yl)ethanol]", "values": [{"measurement": "IC50", "value": "< 5", "unit": "µM"}]}, {"smiles": "Nc1ncncc1Nc1ncnc2nc(-c3c(Cl)cccc3Cl)[nH]c12", "note": "[Example 398, N5-(8-(2,6-dichlorophenyl)-7H-purin-6-yl)pyrimidine-4,5-diamine]", "values": [{"measurement": "IC50", "value": "< 5", "unit": "µM"}]}, {"smiles": "Nc1ncnc2c1nc(-c1c(Cl)cccc1Cl)n2CC(=O)O", "note": "[Example 399, 2-(6-amino-8-(2,6-dichlorophenyl)-9H-purin-9-yl)acetic acid]", "values": [{"measurement": "IC50", "value": "< 5", "unit": "µM"}]}, {"smiles": "NC(=O)Cn1c(-c2c(Cl)cccc2Cl)nc2c(N)ncnc21", "note": "[Example 400, 2-(6-amino-8-(2,6-dichlorophenyl)-9H-purin-9-yl)acetamide]", "values": [{"measurement": "IC50", "value": "< 5", "unit": "µM"}]}, {"smiles": "N=C(N)Cn1c(-c2c(Cl)cccc2Cl)nc2c(N)ncnc21", "note": "[Example 401, 2-(6-amino-8-(2,6-dichlorophenyl)-9H-purin-9-yl)acetimidamide]", "values": [{"measurement": "IC50", "value": "< 5", "unit": "µM"}]}, {"smiles": "Nc1cncnc1Nc1ncnc2[nH]c(-c3c(Cl)cccc3Cl)nc12", "note": "[Example 402, N4-(8-(2,6-dichlorophenyl)-9H-purin-6-yl)pyrimidine-4,5-diamine]", "values": [{"measurement": "IC50", "value": "< 5", "unit": "µM"}]}, {"smiles": "Nc1nccc(Nc2ncnc3[nH]c(-c4c(Cl)cccc4Cl)nc23)n1", "note": "[Example 403, N4-(8-(2,6-dichlorophen-yl)-9H-purin-6-yl)pyrimidine-2,4-diamine]", "values": [{"measurement": "IC50", "value": "< 5", "unit": "µM"}]}, {"smiles": "Nc1ccnc(Nc2ncnc3[nH]c(-c4c(Cl)cccc4Cl)nc23)n1", "note": "[Example 404, N2-(8-(2,6-dichlorophenyl)-9H-purin-6-yl)pyrimidine-2,4-diamine]", "values": [{"measurement": "IC50", "value": "< 5", "unit": "µM"}]}, {"smiles": "Nc1cc(Nc2ncnc3[nH]c(-c4c(Cl)cccc4Cl)nc23)nc(O)n1", "note": "[Example 405, 4-amino-6-(8-(2,6-dichlorophenyl)-9H-purin-6-ylamino)pyrimidin-2-ol]", "values": [{"measurement": "IC50", "value": "< 5", "unit": "µM"}]}, {"smiles": "CSc1nc(N)cc(Nc2ncnc3[nH]c(-c4c(Cl)cccc4Cl)nc23)n1", "note": "[Example 406, N-4-(8-(2,6-dichlorophenyl)-9H-purin-6-yl)-2-(methylthio)-pyrimidine-4,6-diamine]", "values": [{"measurement": "IC50", "value": "< 5", "unit": "µM"}]}, {"smiles": "Clc1cccc(Cl)c1-c1nc2c(Nc3cc(N4CC5(COC5)C4)ncn3)ncnc2[nH]1", "note": "[Example 407, N-(6-(2-oxa-6-azaspiro[3.3]-heptan-6-yl)pyrimidin-4-yl)-8-(2,6-dichlorophenyl)-9H-purin-6-amine]", "values": [{"measurement": "IC50", "value": "< 5", "unit": "µM"}]}, {"smiles": "FC(F)(F)c1ccc(Nc2ncnc3[nH]c(-c4c(Cl)cccc4Cl)nc23)nc1", "note": "[Example 408, 8-(2,6-dichlorophenyl)-N-(5-(trifluoromethyl)pyridin-2-yl)-9H-purin-6-amine]", "values": [{"measurement": "IC50", "value": "< 5", "unit": "µM"}]}, {"smiles": "FC(F)(F)c1ccnc(Nc2ncnc3[nH]c(-c4c(Cl)cccc4Cl)nc23)c1", "note": "[Example 409, 8-(2,6-dichlorophenyl)-N-(4-(trifluoromethyl)-pyridin-2-yl)-9H-purin-6-amine]", "values": [{"measurement": "IC50", "value": "< 5", "unit": "µM"}]}, {"smiles": "Cc1cc(Nc2ncnc3[nH]c(-c4c(Cl)cccc4Cl)nc23)ncc1C#N", "note": "[Example 410, 6-(8-(2,6-dichlorophenyl)-9H-purin-6-ylamino)-4-methylnicotinonitrile]", "values": [{"measurement": "IC50", "value": "< 5", "unit": "µM"}]}, {"smiles": "Fc1ccnc(Nc2ncnc3[nH]c(-c4c(Cl)cccc4Cl)nc23)c1", "note": "[Example 411, 8-(2,6-dichlorophenyl)-N-(4-fluoropyridin-2-yl)-9H-purin-6-amine]", "values": [{"measurement": "IC50", "value": "< 5", "unit": "µM"}]}, {"smiles": "Clc1cccc(Cl)c1-c1nc2c(Nc3ncnc4[nH]ccc34)ncnc2[nH]1", "note": "[Example 412, 8-(2,6-dichlorophenyl)-N-(7H-pyrrolo[2,3-d]-pyrimidin-4-yl)-9H-purin-6-amine]", "values": [{"measurement": "IC50", "value": "< 5", "unit": "µM"}]}]}
